Results on 27 compounds are retold here after the supplement of paper PMC12823440, “Inhibitors supercharge kinase turnover through native proteolytic circuits” (Nature, 2025).

By UniProt entry, the sequences of proteins in these tests, tags left out. Where a name states a change or a piece, a line headed by the entry shows the natural chain unless it says otherwise.
UniProt P23458: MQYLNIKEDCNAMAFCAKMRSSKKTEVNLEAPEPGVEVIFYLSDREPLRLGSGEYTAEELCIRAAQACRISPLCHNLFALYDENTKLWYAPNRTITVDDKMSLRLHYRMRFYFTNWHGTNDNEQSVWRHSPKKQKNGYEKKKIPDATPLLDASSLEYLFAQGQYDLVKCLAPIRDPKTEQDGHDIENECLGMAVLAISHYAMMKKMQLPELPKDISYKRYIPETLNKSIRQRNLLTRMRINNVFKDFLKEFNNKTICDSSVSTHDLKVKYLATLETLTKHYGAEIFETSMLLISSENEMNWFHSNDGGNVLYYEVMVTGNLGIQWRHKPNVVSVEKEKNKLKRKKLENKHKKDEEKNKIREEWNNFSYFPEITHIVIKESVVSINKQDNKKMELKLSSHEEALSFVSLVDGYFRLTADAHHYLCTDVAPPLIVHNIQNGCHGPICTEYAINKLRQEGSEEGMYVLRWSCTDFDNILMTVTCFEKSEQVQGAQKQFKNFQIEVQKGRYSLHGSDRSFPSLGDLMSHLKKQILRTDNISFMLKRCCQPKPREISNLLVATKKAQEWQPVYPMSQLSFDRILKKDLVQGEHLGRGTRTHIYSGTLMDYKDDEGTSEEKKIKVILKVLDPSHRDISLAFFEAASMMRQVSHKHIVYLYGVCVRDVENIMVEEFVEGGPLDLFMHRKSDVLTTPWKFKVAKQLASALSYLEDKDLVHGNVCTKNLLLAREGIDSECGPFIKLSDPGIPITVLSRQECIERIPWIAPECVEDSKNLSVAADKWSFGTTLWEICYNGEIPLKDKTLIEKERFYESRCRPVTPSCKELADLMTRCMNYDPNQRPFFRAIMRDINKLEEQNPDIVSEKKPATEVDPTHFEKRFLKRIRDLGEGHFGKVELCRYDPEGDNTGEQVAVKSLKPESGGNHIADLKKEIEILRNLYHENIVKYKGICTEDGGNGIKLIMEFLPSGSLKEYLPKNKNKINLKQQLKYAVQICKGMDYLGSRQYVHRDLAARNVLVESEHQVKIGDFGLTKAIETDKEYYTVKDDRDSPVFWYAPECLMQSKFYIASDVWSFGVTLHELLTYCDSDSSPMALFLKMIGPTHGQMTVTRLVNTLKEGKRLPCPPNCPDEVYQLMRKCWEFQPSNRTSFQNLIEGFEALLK

Counter-ions that a name gives are not always drawn. This is one part of the list. The calls rarely recur for the same compound in another form.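 In K562 cells expressing nanoluciferase-fused kinases, luminescence was recorded at 4 h intervals between 2 and 18 h, normalized as percent of control with DMSO at 100% and a positive control at 0%. A significant (2 sigma) signal drop marks a time point as decreased. The authors' rule for a hit is not shown and takes in more than the number of time points.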

This experiment concerns the target JAK1 (UniProt P23458). Put plainly: number of time points (of 5) at which kinase-Nluc abundance scored as decreased, DMSO-normalised (count); higher = more persistent destabilization. The conditions noted are these: K562; 2-18 h.
With `O=C(ON=C1c2ccccc2-c2nc3ccccc3nc21)c1ccco1` (2.5 µM), the “number of time points” value turned out to be 0.

Consider `COc1ccc(S(=O)(=O)Nc2cc(-c3c(O)ccc4ccccc34)c(O)c3ccccc23)cc1` (10 µM), for which the “number of time points” value worked out at 0.

Turning to `Cc1cccc(COc2cccc(/C=C3\C(=O)NN(c4ccccc4)C3=O)c2)c1` (10 µM), the “number of time points” value was 0.

For `CC(C)Oc1ccc(F)c(-c2cnc(N)c(C(=O)Nc3cnccc3N3CCC[C@@H](C(=O)O)C3)n2)c1` (2 µM), the “number of time points” value is 2.

On to `COc1cc(F)ccc1-c1ncnc(Nc2cccc(C[S@](C)(=N)=O)c2)n1` [Atuveciclib] (2.5 µM), for which the “number of time points” value amounted to 2.

As for `CC(C)n1ncnc1-c1cn2c(n1)-c1ccc(O[C@@H](C)C(N)=O)cc1OCC2` (10 µM), the “number of time points” value is 0.

In the case of `Cn1c(CNc2cccc(C(=O)NCc3ccccc3C(F)(F)F)c2)nnc1-c1ccncc1` (10 µM), the “number of time points” value turned out to be 0.

For `O=Nc1c(-c2c(O)[nH]c3cc(Br)ccc23)[nH]c2ccccc12` [GSK 3 Inhibitor IX] (2.5 µM), the “number of time points” value came out at 0.

Take `Nc1ncc(C(=O)NC2CN(C(=O)C3CC3)C2)c2ccc(-c3cccc(F)c3)nc12` (2 µM): the “number of time points” value is 0.

Take `O=C(Nc1cc(Cl)cc2c1[nH]c1cnccc12)c1cccnc1` (10 µM): the “number of time points” value stood at 0.

On to `c1ccc(Cn2c(-c3ccc(OC[C@H](C4CCNCC4)n4c(-c5ccccc5)nc5ccccc54)cc3)nc3ccccc32)cc1` [Deltarasin] (2.5 µM), for which the “number of time points” value worked out at 0.

For `COc1cc2ncnc(Nc3cccc(I)c3)c2cc1OC` (2.5 µM), the “number of time points” value worked out at 0.

As to `Clc1ccc(C(c2ccc(Cl)cc2)[n+]2ccn(CC(OCc3ccc(Cl)cc3Cl)c3ccc(Cl)cc3Cl)c2)cc1` (configuration not stated) [Calmidazolium chloride] (2.5 µM), the “number of time points” value is 0.

Regarding `O=C(Nc1cccnc1)c1cc(-c2ccnc(F)c2)ccc1OCc1ccccc1` (10 µM), the “number of time points” value was determined as 0.

With `c1nn(C2CCOCC2)cc1Nc1ncc2nnn(-c3ccc4cn[nH]c4c3)c2n1` (10 µM), the “number of time points” value was found to be 0.

Take `COC(=O)[C@H](CCSC)NC(=O)c1ccc(NC[C@@H](N)CS)cc1-c1ccccc1` [FTI-277 (hydrochloride)] (10 µM): the “number of time points” value was 0.

Regarding `Cc1cc(Nc2cc(N)ncn2)c(=O)n2c1C(=O)NC21CCCCC1` [Tomivosertib] (10 µM), the “number of time points” value worked out at 0.

In the case of `CCc1c[nH]c2ncnc(N3CC[C@](N)(CNC(=O)c4ccc(F)cc4F)C3)c12` (10 µM), the “number of time points” value is 0.

In the case of `Nc1ncnc2c1nc(Br)n2[C@@H]1O[C@@H]2COP(=O)(O)O[C@H]2[C@H]1O` [8-Bromo-cAMP sodium salt] (10 µM), the “number of time points” value came out at 0.

On to `CC(C)n1c(=O)n(C)c2cnc3cc(F)c(-c4ccc(OCCCN5CCCCC5)nc4)cc3c21` (10 µM), for which the “number of time points” value amounted to 0.

In the case of `Cc1ccc(C)c(OCCn2cc(C(=O)O)c3ccccc32)c1` (10 µM), the “number of time points” value was determined as 0.

Take `COCCOc1ccc2c(c1)ncn2-c1ccc2cccc(N3CCC(N)CC3)c2n1` (10 µM): the “number of time points” value was determined as 3.

Take `CC(C)=CCC/C(C)=C/CC/C(C)=C/C=C/C(C)=C/C(=O)O` [Peretinoin] (10 µM): the “number of time points” value is 0.

As to `C=CC(=O)N1CC[C@@H](Oc2nc(Nc3ccc(N4CCC(N5CCN(C)CC5)CC4)cc3)c(C(N)=O)nc2CC)C1` [Naquotinib (mesylate)] (2.5 µM), the “number of time points” value is 0.

`CC(Sc1nc2c(cnn2-c2cccc(Cl)c2)c(=O)[nH]1)C(N)=O` (configuration not stated) (10 µM): the “number of time points” value was 0.

As for `Cc1cc(O)c2c(c1)C(=O)c1cccc(O)c1C2=O` [Chrysophanol] (2 µM), the “number of time points” value was 0.

On to `O=C1OC(/C=C/c2ccccc2)=NC/1=C\c1cccnc1` (10 µM), for which the “number of time points” value is 0.
